# From the supplement of paper PMC8728848
# The other results are listed elsewhere or left out.
# Assays:
# Test in all cases: glycan array binding signal (z-score within array); higher = stronger binding
# Details in all cases: glycan notation: IUPAC condensed, linker removed
# [1] = target: GlcNAc(b1-3)Gal(b1-4)GlcNAc(b1-3)Gal(b1-4)GlcNAc(b1-3)Gal(b1-4)GlcNAc(b1-3)Gal(b1-4)GlcNAc(b1-2)[GlcNAc(b1-3)Gal(b1-4)GlcNAc(b1-3)Gal(b1-4)GlcNAc(b1-3)Gal(b1-4)GlcNAc(b1-3)Gal(b1-4)GlcNAc(b1-6)]Man(a1-6)[GlcNAc(b1-3)Gal(b1-4)GlcNAc(b1-3)Gal(b1-4)GlcNAc(b1-3)Gal(b1-4)GlcNAc(b1-3)Gal(b1-4)GlcNAc(b1-2)Man(a1-3)]Man(b1-4)GlcNAc(b1-4)[Fuc(a1-6)]GlcNAc
# How it was run: (§1)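 Glycan array data were curated from 3228 arrays in the Consortium for Functional Glycomics database and kept only where the protein sequence was available. Glycan names were converted to IUPAC-condensed notation, and columns mapping to the same glycan were averaged. The binding signal is a within-array Z-score, averaged across arrays of the same protein sequence at different concentrations or buffers and across linkers. Negative Z-scores can be read as non-binding.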
# [2] = target: GlcNAc(b1-3)Gal(b1-4)GlcNAc(b1-3)Gal(b1-4)GlcNAc(b1-3)GalNAc
# How it was run: as §1
# [3] = target: GlcNAc(b1-3)Gal(b1-4)GlcNAc(b1-3)GalNAc
# How it was run: as §1
# [4] = target: GlcNAc(b1-3)Gal(b1-4)GlcNAc(b1-3)[GlcNAc(b1-3)Gal(b1-4)GlcNAc(b1-3)]GalNAc
# How it was run: as §1
# [5] = target: GlcNAc(b1-3)Gal(b1-4)GlcNAc(b1-6)[Gal(b1-3)]GalNAc
# How it was run: as §1
# [6] = target: GlcNAc(b1-3)Gal(b1-4)GlcNAc(b1-6)[GlcNAc(b1-3)Gal(b1-3)]GalNAc
# How it was run: as §1
# [7] = target: GlcNAc(b1-3)Gal(b1-4)GlcNAc(b1-6)[GlcNAc(b1-3)]Gal(b1-4)GlcNAc
# How it was run: as §1
# GlcNAc(b1-3)GalNAc = target: GlcNAc(b1-3)GalNAc
# How it was run: as §1
# GlcNAc(b1-3)Man = target: GlcNAc(b1-3)Man
# How it was run: as §1
# [8] = target: GlcNAc(b1-3)[GlcNAc(b1-4)][GlcNAc(b1-6)]GlcNAc
# How it was run: as §1
# [9] = target: GlcNAc(b1-3)[GlcNAc(b1-6)]Gal(b1-4)GlcNAc
# How it was run: as §1
# [10] = target: GlcNAc(b1-3)[GlcNAc(b1-6)]GalNAc
# How it was run: as §1
# [11] = target: GlcNAc(b1-4)Gal(b1-4)GlcNAc
# How it was run: as §1
# GlcNAc(b1-4)GlcNAc = target: GlcNAc(b1-4)GlcNAc
# How it was run: as §1
# [12] = target: GlcNAc(b1-4)GlcNAc(b1-4)GlcNAc
# How it was run: as §1
# [13] = target: GlcNAc(b1-4)GlcNAc(b1-4)GlcNAc(b1-4)GlcNAc(b1-4)GlcNAc
# How it was run: as §1
# [14] = target: GlcNAc(b1-4)GlcNAc(b1-4)GlcNAc(b1-4)GlcNAc(b1-4)GlcNAc(b1-4)GlcNAc
# How it was run: as §1
# [15] = target: GlcNAc(b1-4)[GlcNAc(b1-6)]GalNAc
# How it was run: as §1
# [16] = target: GlcNAc(b1-6)Gal(b1-4)GlcNAc
# How it was run: as §1
# GlcNAc(b1-6)GalNAc = target: GlcNAc(b1-6)GalNAc
# How it was run: as §1
# [17] = target: GlcNAc6S(b1-3)Gal(b1-4)GlcNAc
# How it was run: as §1
# Kdn(a2-3)Gal(b1-3)GalNAc = target: Kdn(a2-3)Gal(b1-3)GalNAc
# How it was run: as §1
# Kdn(a2-3)Gal(b1-3)GlcNAc = target: Kdn(a2-3)Gal(b1-3)GlcNAc
# How it was run: as §1
# Kdn(a2-3)Gal(b1-4)Glc = target: Kdn(a2-3)Gal(b1-4)Glc
# How it was run: as §1
# Kdn(a2-3)Gal(b1-4)GlcNAc = target: Kdn(a2-3)Gal(b1-4)GlcNAc
# How it was run: as §1
# [18] = target: Kdn(a2-3)Gal(b1-4)[Fuc(a1-3)]GlcNAc
# How it was run: as §1
# Kdn(a2-6)Gal(b1-4)GlcNAc = target: Kdn(a2-6)Gal(b1-4)GlcNAc
# How it was run: as §1
# [19] = target: Man(a1-2)Man(a1-2)Man(a1-3)Man
# How it was run: as §1
# [20] = target: Man(a1-2)Man(a1-2)Man(a1-6)[Man(a1-3)]Man
# How it was run: as §1
# Man(a1-2)Man(a1-3)Man = target: Man(a1-2)Man(a1-3)Man
# How it was run: as §1
# [21] = target: Man(a1-2)Man(a1-3)[Man(a1-2)Man(a1-6)]Man
# How it was run: as §1
# [22] = target: Man(a1-2)Man(a1-3)[Man(a1-2)Man(a1-6)]Man(a1-6)[Man(a1-2)Man(a1-2)Man(a1-3)]Man
# How it was run: as §1
# [23] = target: Man(a1-2)Man(a1-3)[Man(a1-2)Man(a1-6)]Man(a1-6)[Man(a1-2)Man(a1-2)Man(a1-3)]Man(b1-4)GlcNAc(b1-4)GlcNAc
# How it was run: as §1
# [24] = target: Man(a1-2)Man(a1-3)[Man(a1-6)]Man(a1-6)[Man(a1-2)Man(a1-3)]Man(b1-4)GlcNAc(b1-4)GlcNAc
# How it was run: as §1
# [25] = target: Man(a1-2)Man(a1-6)[Man(a1-3)]Man(a1-6)[Man(a1-2)Man(a1-2)Man(a1-3)]Man
# How it was run: as §1
# [26] = target: Man(a1-2)Man(a1-6)[Man(a1-3)]Man(a1-6)[Man(a1-2)Man(a1-2)Man(a1-3)]Man(b1-4)GlcNAc(b1-4)GlcNAc
# How it was run: as §1
# Man(a1-3)[Man(a1-6)]Man = target: Man(a1-3)[Man(a1-6)]Man
# How it was run: as §1
# [27] = target: Man(a1-3)[Man(a1-6)]Man(a1-6)[Man(a1-2)Man(a1-3)]Man(b1-4)GlcNAc(b1-4)GlcNAc
# How it was run: as §1
# [28] = target: Man(a1-3)[Man(a1-6)]Man(a1-6)[Man(a1-3)]Man
# How it was run: as §1
# [29] = target: Man(a1-3)[Man(a1-6)]Man(a1-6)[Man(a1-3)]Man(b1-4)GlcNAc(b1-4)GlcNAc
# How it was run: as §1
# [30] = target: Man(a1-3)[Man(a1-6)]Man(b1-4)GlcNAc(b1-4)GlcNAc
# How it was run: as §1
# [31] = target: Man(a1-3)[Man(a1-6)]Man(b1-4)GlcNAc(b1-4)[Fuc(a1-6)]GlcNAc
# How it was run: as §1
# Man(a1-6)Man = target: Man(a1-6)Man
# How it was run: as §1
# Man(b1-4)GlcNAc = target: Man(b1-4)GlcNAc
# How it was run: as §1
# MurNAc(b1-4)GlcNAc = target: MurNAc(b1-4)GlcNAc
# How it was run: as §1
binder,measurement,setting,value
"AFL6 (Aspergillus fumigatus), Q4WKJ1 (protein) MSFHLTAEDIRIEDGHRLVARLRNADGDLQDASIDLNTCLGNDNGHFQWDGVDFSHSAQDVHFAIEGGGQVPVLRAQLANQDGEFQDADVNLSERIENINGEFVFH",glycan array binding signal (z-score),[1],0.786
same,glycan array binding signal (z-score),[2],-0.176
same,glycan array binding signal (z-score),[3],-0.333
same,glycan array binding signal (z-score),[4],0.588
same,glycan array binding signal (z-score),[5],-0.617
same,glycan array binding signal (z-score),[6],-0.339
same,glycan array binding signal (z-score),[7],-0.637
same,glycan array binding signal (z-score),GlcNAc(b1-3)GalNAc,-0.252
same,glycan array binding signal (z-score),GlcNAc(b1-3)Man,-0.615
same,glycan array binding signal (z-score),[8],-0.371
same,glycan array binding signal (z-score),[9],-0.421
same,glycan array binding signal (z-score),[10],-0.337
same,glycan array binding signal (z-score),[11],-0.294
same,glycan array binding signal (z-score),GlcNAc(b1-4)GlcNAc,-0.177
same,glycan array binding signal (z-score),[12],-0.154
same,glycan array binding signal (z-score),[13],-0.087
same,glycan array binding signal (z-score),[14],0.533
same,glycan array binding signal (z-score),[15],-0.154
same,glycan array binding signal (z-score),[16],-0.225
same,glycan array binding signal (z-score),GlcNAc(b1-6)GalNAc,-0.476
same,glycan array binding signal (z-score),[17],-0.122
same,glycan array binding signal (z-score),Kdn(a2-3)Gal(b1-3)GalNAc,0.106
same,glycan array binding signal (z-score),Kdn(a2-3)Gal(b1-3)GlcNAc,0.231
same,glycan array binding signal (z-score),Kdn(a2-3)Gal(b1-4)Glc,0.305
same,glycan array binding signal (z-score),Kdn(a2-3)Gal(b1-4)GlcNAc,0.251
same,glycan array binding signal (z-score),[18],0.361
same,glycan array binding signal (z-score),Kdn(a2-6)Gal(b1-4)GlcNAc,-0.343
same,glycan array binding signal (z-score),[19],-0.027
same,glycan array binding signal (z-score),[20],-0.16
same,glycan array binding signal (z-score),Man(a1-2)Man(a1-3)Man,-0.536
same,glycan array binding signal (z-score),[21],-0.608
same,glycan array binding signal (z-score),[22],-0.103
same,glycan array binding signal (z-score),[23],-0.201
same,glycan array binding signal (z-score),[24],-0.17
same,glycan array binding signal (z-score),[25],-0.466
same,glycan array binding signal (z-score),[26],-0.587
same,glycan array binding signal (z-score),Man(a1-3)[Man(a1-6)]Man,-0.731
same,glycan array binding signal (z-score),[27],-0.033
same,glycan array binding signal (z-score),[28],0.138
same,glycan array binding signal (z-score),[29],-0.308
same,glycan array binding signal (z-score),[30],-0.448
same,glycan array binding signal (z-score),[31],-0.578
same,glycan array binding signal (z-score),Man(a1-6)Man,0.29
same,glycan array binding signal (z-score),Man(b1-4)GlcNAc,-0.133
same,glycan array binding signal (z-score),MurNAc(b1-4)GlcNAc,-0.584

# 2 entries picked at random from those above:
binder,measurement,setting,value
"AFL6 (Aspergillus fumigatus), Q4WKJ1 (protein) MSFHLTAEDIRIEDGHRLVARLRNADGDLQDASIDLNTCLGNDNGHFQWDGVDFSHSAQDVHFAIEGGGQVPVLRAQLANQDGEFQDADVNLSERIENINGEFVFH",glycan array binding signal (z-score),[12],-0.154
same,glycan array binding signal (z-score),Kdn(a2-3)Gal(b1-4)Glc,0.305
